In publication PMC5800818:
Results are given in words; binding and its absence hold for the method and conditions named. Binding seen in cells or lysates may run through a third protein. Some results given as binding are weak or reduced against the parent protein; the word gives no strength. For part of these data: Where a sequence is shown, tags or fusion partners need not be part of it.

Chains of the proteins cited; added tags and fusions are not shown. Lines headed by an entry give the natural chain unless they say otherwise; changes in a name come on top. A line that says so, or that is headed by a name, gives the form on record, which may keep a tag or linker. Residues count along the entry.
GST-Mdm2^134–334 (Q00987, residues 128-328): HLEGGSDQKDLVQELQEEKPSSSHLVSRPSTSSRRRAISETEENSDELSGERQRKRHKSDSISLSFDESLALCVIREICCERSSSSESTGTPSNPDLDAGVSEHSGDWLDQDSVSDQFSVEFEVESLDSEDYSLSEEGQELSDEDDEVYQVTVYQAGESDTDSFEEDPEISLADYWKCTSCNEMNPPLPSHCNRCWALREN
GST-Mdm2^1–134 (Q00987, form named): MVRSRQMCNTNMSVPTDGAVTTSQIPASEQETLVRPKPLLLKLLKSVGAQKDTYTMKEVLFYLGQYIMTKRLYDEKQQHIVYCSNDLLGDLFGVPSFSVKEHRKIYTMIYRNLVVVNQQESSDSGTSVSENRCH

B1: endogenous Numb (protein, UniProt P49757 1-651)
chain: MNKLRQSFRRKKDVYVPEASRPHQWQTDEEGVRTGKCSFPVKYLGHVEVDESRGMHICEDAVKRLKAERKFFKGFFGKTGKKAVKAVLWVSADGLRVVDEKTKDLIVDQTIEKVSFCAPDRNFDRAFSYICRDGTTRRWICHCFMAVKDTGERLSHAVGCAFAACLERKQKREKECGVTATFDASRTTFTREGSFRVTTATEQAEREEIMKQMQDAKKAETDKIVVGSSVAPGNTAPSPSSPTSPTSDATTSLEMNNPHAIPRRHAPIEQLARQGSFRGFPALSQKMSPFKRQLSLRINELPSTMQRKTDFPIKNAVPEVEGEAESISSLCSQITNAFSTPEDPFSSAPMTKPVTVVAPQSPTFQANGTDSAFHVLAKPAHTALAPVAMPVRETNPWAHAPDAANKEIAATCSGTEWGQSSGAASPGLFQAGHRRTPSEADRWLEEVSKSVRAQQPQASAAPLQPVLQPPPPTAISQPASPFQGNAFLTSQPVPVGVVPALQPAFVPAQSYPVANGMPYPAPNVPVVGITPSQMVANVFGTAGHPQAAHPHQSPSLVRQQTFPHYEASSATTSPFFKPPAQHLNGSAAFNGVDDGRLASADRHTEVPTGTCPVDPFEAQWAALENKSKQRTNPSPTNPFSSDLQKTFEIEL
B2: FLAG-tagged Numb^1–340 (N-terminal PTB-containing fragment of Numb-1) (domain or fragment, UniProt P49757-1 1-340)
chain: MNKLRQSFRRKKDVYVPEASRPHQWQTDEEGVRTGKCSFPVKYLGHVEVDESRGMHICEDAVKRLKAERKFFKGFFGKTGKKAVKAVLWVSADGLRVVDEKTKDLIVDQTIEKVSFCAPDRNFDRAFSYICRDGTTRRWICHCFMAVKDTGERLSHAVGCAFAACLERKQKREKECGVTATFDASRTTFTREGSFRVTTATEQAEREEIMKQMQDAKKAETDKIVVGSSVAPGNTAPSPSSPTSPTSDATTSLEMNNPHAIPRRHAPIEQLARQGSFRGFPALSQKMSPFKRQLSLRINELPSTMQRKTDFPIKNAVPEVEGEAESISSLCSQITNAFST

How the values were obtained:
GST-Mdm2^1–134 (human) = GST-Mdm2^1–134 (human) (UniProt Q00987); test: pull-down; as Fig. 1 C but with higher concentrations of Mdm2 1–134; not depicted; only the target purified
GST-Mdm2^134–334 (human) [1] = target: GST-Mdm2^134–334 (human) (UniProt Q00987); test: pull-down; GST-Mdm2 fragments (0.5 µM) with 1 mg of MCF-10A lysate; Numb immunoblot; only the target purified
GST-Mdm2^134–334 (human) [2] = target: GST-Mdm2^134–334 (human) (UniProt Q00987); test: pull-down; purified GST-Mdm2 fragments (0.4 µM) with 0.75 mg of lysate of HEK293 cells expressing FLAG-tagged Numb fragments; FLAG immunoblot; only the target purified

| Binder | binding (GST-Mdm2^1–134 (human)) | binding (GST-Mdm2^134–334 (human) [1]) | binding (GST-Mdm2^134–334 (human) [2]) |
| --- | --- | --- | --- |
| B1 | binds weakly | binds |  |
| B2 |  |  | binds |
